Data taken from US11986445B2, “Nutritional composition and infant formula for promoting myelination of the brain” (SOCIÉTÉ DES PRODUITS NESTLÉ S.A., priority 2015, dated 2024).
At least one compound was matched to its structure with a doubt left.

System: brain myelination (myelin water fraction)
Assay: Cross-sectional correlation of infant formula nutrient content with brain myelination (MRI myelin water fraction)
Type: in vivo, human
Settings: children up to 5 years fed different infant formulas
Source text: This technique provides a quantitative measure, the Myelin Water Fraction (MWF), which is a surrogate marker of myelin content in the brain.
Infants included in this study were drawn from a larger longitudinal study of normal brain and behavioral development: the Brown University Assessment of Myelination and Behavior Across Maturation (BAMBAM). To focus on neurotypical development, children with known potential risk factors for learning, neurologic, or psychiatric disorders were specifically excluded during recruitment and enrollment. Thus, children with in utero alcohol or illicit substance exposure, premature (<37 weeks gestation) or multiple birth, fetal ultrasound abnormalities, complicated pregnancy (e.g., preeclampsia), APGAR scores <8, NICU admission, neurological disorder (e.g., head injury, epilepsy), psychiatric or developmental disorders in the infant, parents or siblings (including maternal depression requiring medication) were excluded. Ongoing screenings, such as the MCAT for autism, or CBCL for behavioral problems, were further used to remove enrolled children with clinically concerning behaviors or overt medical conditions (such as autism spectrum disorders). […]

For `CC/C=C\C/C=C\C/C=C\C/C=C\C/C=C\C/C=C\CCC(=O)O` [DHA, docosahexaenoic acid], the “association of nutrient with myelination (myelin water fraction) over time in the brain” value was “an association with myelination (myelin water fraction) was observed”.
